Reference: publication PMC7714401
These are yes or no findings as the source states them, for the method shown. Binding calls can cover weak binding; strength is not graded here. For some of these results: In cells and extracts the contact can be indirect.

Amino acid sequences for entries named in this document (tags omitted). A change or cut given only in a name is not applied to a line headed by its entry. Residues count along the entry.
UniProt K9N4Q4: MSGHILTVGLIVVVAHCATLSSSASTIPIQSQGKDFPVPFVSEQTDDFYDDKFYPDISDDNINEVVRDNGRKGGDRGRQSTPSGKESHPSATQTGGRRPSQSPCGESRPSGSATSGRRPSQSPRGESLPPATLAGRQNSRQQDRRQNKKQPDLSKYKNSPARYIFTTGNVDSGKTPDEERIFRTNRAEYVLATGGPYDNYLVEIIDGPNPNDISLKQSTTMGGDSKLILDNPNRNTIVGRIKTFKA
UniProt Q02413: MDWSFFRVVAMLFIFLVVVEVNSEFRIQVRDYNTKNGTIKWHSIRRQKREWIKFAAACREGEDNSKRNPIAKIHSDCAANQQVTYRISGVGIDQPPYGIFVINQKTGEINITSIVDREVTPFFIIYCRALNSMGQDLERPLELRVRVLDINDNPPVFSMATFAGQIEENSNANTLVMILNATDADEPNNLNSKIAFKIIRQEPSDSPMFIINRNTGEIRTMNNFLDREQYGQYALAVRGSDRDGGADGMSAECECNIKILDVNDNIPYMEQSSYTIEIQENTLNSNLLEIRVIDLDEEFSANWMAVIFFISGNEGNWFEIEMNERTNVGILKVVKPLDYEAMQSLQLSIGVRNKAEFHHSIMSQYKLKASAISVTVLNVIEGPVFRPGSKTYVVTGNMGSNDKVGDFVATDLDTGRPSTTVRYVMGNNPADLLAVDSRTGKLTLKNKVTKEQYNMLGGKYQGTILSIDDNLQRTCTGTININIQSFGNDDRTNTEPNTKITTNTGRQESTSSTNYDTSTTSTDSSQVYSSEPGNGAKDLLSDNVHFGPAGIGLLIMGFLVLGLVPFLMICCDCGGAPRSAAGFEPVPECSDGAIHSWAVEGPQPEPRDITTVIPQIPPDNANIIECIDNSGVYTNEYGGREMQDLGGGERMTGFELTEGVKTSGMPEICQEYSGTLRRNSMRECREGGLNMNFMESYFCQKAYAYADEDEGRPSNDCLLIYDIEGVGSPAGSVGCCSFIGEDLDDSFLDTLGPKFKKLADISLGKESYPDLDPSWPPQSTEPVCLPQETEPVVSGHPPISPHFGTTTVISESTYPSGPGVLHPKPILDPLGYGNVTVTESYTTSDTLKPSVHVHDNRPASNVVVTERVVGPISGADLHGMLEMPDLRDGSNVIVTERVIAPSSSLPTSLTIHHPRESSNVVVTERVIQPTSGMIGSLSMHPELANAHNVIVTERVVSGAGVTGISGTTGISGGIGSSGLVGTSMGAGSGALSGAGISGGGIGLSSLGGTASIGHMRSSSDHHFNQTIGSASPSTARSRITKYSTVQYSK
recombinant human Dsg1: residues 50-548 of Q02413

What was measured:
[1] = biological target: recombinant PpSP32 protein of Phlebotomus papatasi (Phlebotomus papatasi) (UniProt K9N4Q4); test: co-IP; mixture of skin extract (100 μg) and rPpSP32 (25 μg) incubated at 4°C for 1 hour with Dynabeads M-270 Epoxy adsorbed with anti-His antibody; eluate analysed by Coomassie staining and by blots with anti-human Dsg1, anti-human Dsg3 and anti-His antibodies; only the target purified
[2] = biological target: recombinant human Dsg1 (human) (UniProt Q02413); test: ELISA; plates coated with 0.1 μg recombinant protein in carbonate-bicarbonate buffer (0.1 M, pH 9.6) at 4°C overnight; incubated with decreasing concentrations of rPpSP32 (or CFP32) for 1 hour at 37°C; detected with human sera containing anti-PpSP32 or anti-CFP32 antibodies; both purified
[3] = biological target: T1, recombinant human Dsg3 (human) (UniProt P32926); test: as above
T1 sequence: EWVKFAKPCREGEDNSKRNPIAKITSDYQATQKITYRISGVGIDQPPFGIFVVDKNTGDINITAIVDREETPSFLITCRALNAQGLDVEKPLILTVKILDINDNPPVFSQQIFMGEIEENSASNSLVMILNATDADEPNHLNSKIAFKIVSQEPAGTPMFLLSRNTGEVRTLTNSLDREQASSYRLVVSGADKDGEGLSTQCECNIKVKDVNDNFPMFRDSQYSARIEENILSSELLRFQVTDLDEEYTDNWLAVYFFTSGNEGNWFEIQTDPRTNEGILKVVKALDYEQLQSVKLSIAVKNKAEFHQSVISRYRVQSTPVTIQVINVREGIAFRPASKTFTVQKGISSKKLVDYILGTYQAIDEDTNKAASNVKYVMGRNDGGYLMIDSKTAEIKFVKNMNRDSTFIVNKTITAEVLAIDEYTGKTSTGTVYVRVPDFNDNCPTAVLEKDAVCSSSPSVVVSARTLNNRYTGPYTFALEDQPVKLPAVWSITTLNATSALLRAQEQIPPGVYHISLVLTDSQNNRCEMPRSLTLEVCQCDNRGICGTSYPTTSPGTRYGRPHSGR

desmoglein 1 of the human epidermal extract (from UniProt Q02413 50-1049)
binding [1]: binds

recombinant PpSP32 protein of Phlebotomus papatasi (from UniProt K9N4Q4)
binding [2]: binds | binding [3]: binds

B1: desmoglein 3 of the human epidermal extract (protein, UniProt P32926 50-999)
chain: EWVKFAKPCREGEDNSKRNPIAKITSDYQATQKITYRISGVGIDQPPFGIFVVDKNTGDINITAIVDREETPSFLITCRALNAQGLDVEKPLILTVKILDINDNPPVFSQQIFMGEIEENSASNSLVMILNATDADEPNHLNSKIAFKIVSQEPAGTPMFLLSRNTGEVRTLTNSLDREQASSYRLVVSGADKDGEGLSTQCECNIKVKDVNDNFPMFRDSQYSARIEENILSSELLRFQVTDLDEEYTDNWLAVYFFTSGNEGNWFEIQTDPRTNEGILKVVKALDYEQLQSVKLSIAVKNKAEFHQSVISRYRVQSTPVTIQVINVREGIAFRPASKTFTVQKGISSKKLVDYILGTYQAIDEDTNKAASNVKYVMGRNDGGYLMIDSKTAEIKFVKNMNRDSTFIVNKTITAEVLAIDEYTGKTSTGTVYVRVPDFNDNCPTAVLEKDAVCSSSPSVVVSARTLNNRYTGPYTFALEDQPVKLPAVWSITTLNATSALLRAQEQIPPGVYHISLVLTDSQNNRCEMPRSLTLEVCQCDNRGICGTSYPTTSPGTRYGRPHSGRLGPAAIGLLLLGLLLLLLAPLLLLTCDCGAGSTGGVTGGFIPVPDGSEGTIHQWGIEGAHPEDKEITNICVPPVTANGADFMESSEVCTNTYARGTAVEGTSGMEMTTKLGAATESGGAAGFATGTVSGAASGFGAATGVGICSSGQSGTMRTRHSTGGTNKDYADGAISMNFLDSYFSQKAFACAEEDDGQEANDCLLIYDNEGADATGSPVGSVGCCSFIADDLDDSFLDSLGPKFKKLAEISLGVDGEGKEVQPPSKDSGYGIESCGHPIEVQQTGFVKCQTLSGSQGASALSTSGSVQPAVSIPDPLQHGNYLVTETYSASGSLVQPSTAGFDPLLTQNVIVTERVICPISSVPGNLAGPTQLRGSHTMLCTEDPCSRLI
binding [1]: binds
